No constants are given. Whether binding was seen depends on the method and setting. Binding seen in cells or lysates may run through a third protein. A yes stands for co-enrichment or nearness to the bait. Other partners may have been found.
B1: endogenous GRF2 (protein, UniProt Q01525 1-259)
chain: MASGREEFVYMAKLAEQAERYEEMVEFMEKVSAAVDGDELTVEERNLLSVAYKNVIGARRASWRIISSIEQKEESRGNDDHVTAIREYRSKIETELSGICDGILKLLDSRLIPAAASGDSKVFYLKMKGDYHRYLAEFKTGQERKDAAEHTLAAYKSAQDIANAELAPTHPIRLGLALNFSVFYYEILNSPDRACNLAKQAFDEAIAELDTLGEESYKDSTLIMQLLRDNLTLWTSDMQDDAADEIKEAAAPKPTEEQQ
B2: endogenous GRF10 (protein, UniProt P48347 1-254)
chain: MENEREKQVYLAKLSEQTERYDEMVEAMKKVAQLDVELTVEERNLVSVGYKNVIGARRASWRILSSIEQKEESKGNDENVKRLKNYRKRVEDELAKVCNDILSVIDKHLIPSSNAVESTVFFYKMKGDYYRYLAEFSSGAERKEAADQSLEAYKAAVAAAENGLAPTHPVRLGLALNFSVFYYEILNSPESACQLAKQAFDDAIAELDSLNEESYKDSTLIMQLLRDNLTLWTSDLNEEGDERTKGADEPQDEN

Chains of the proteins cited; added tags and fusions are not shown.
UniProt P20649: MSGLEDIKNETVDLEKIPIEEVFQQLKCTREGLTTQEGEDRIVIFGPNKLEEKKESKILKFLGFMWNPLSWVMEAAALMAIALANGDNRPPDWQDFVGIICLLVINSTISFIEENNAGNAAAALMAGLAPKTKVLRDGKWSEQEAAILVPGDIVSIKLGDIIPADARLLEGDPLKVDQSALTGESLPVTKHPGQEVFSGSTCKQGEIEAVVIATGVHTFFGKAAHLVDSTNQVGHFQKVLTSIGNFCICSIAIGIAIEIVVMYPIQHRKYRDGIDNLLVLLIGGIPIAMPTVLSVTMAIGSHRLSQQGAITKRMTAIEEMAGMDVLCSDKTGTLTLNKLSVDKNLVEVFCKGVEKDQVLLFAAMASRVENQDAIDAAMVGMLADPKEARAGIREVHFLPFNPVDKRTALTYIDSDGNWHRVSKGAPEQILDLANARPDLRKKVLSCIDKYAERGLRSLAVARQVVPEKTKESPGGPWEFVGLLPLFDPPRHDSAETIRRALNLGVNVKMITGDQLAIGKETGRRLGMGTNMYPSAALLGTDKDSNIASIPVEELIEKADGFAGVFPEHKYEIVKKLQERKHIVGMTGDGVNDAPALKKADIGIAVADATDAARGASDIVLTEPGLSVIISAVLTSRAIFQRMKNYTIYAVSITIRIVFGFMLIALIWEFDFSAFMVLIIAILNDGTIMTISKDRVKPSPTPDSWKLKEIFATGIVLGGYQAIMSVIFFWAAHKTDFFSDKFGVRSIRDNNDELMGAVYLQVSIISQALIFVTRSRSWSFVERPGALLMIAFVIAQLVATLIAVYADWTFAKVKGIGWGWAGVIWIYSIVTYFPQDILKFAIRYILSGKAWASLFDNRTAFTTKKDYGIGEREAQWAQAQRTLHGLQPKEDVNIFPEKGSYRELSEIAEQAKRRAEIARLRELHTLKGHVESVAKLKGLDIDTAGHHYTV
UniProt Q96299: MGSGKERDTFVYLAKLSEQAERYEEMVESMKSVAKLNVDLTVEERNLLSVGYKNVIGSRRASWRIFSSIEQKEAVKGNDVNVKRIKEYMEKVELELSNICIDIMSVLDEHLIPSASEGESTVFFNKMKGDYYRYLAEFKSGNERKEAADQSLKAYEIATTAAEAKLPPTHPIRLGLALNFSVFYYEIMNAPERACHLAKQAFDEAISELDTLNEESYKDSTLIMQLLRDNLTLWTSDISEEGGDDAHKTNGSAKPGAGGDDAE

biological target: AHA1-GFP (Arabidopsis thaliana) (UniProt P20649); assay: affinity purification with mass spectrometry

binding, binds:
endogenous GRF9 (from UniProt Q96299 1-263), B1, B2
